The list shows a part of the results.
Key:
Assay in all cases: log2 fold change, soluble protein after heating vs DMSO (PISA); higher = thermal stabilisation; K562 cells, 10 uM, 30 min; active = over 0.2 and 3.5 SD of the protein, either way, in both replicates (recomputed)
bafetinib = compound: Cc1ccc(NC(=O)c2ccc(CN3CC[C@H](N(C)C)C3)c(C(F)(F)F)c2)cc1Nc1nccc(-c2cncnc2)n1 [bafetinib]
Outline: (§1)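 K562 cells at 2×10^6 cells/mL were exposed to 10 μM compound for 30 min, then aliquots were heated for 3 min across 48°C-58°C, pooled, and extracted in PBS containing 0.5% NP-40 at 4°C. The supernatant after 21,000xg for 90 min was taken as soluble protein and measured by TMTpro 16plex LC-MS/MS with channel sums equalised. Thermal stability is reported relative to control samples, with values from duplicates. Fold changes are given on a log2 scale.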

Protein sequences, listed by entry. Tags and fused reporters are not part of them. Lines headed by an entry give the natural chain unless they say otherwise; changes in a name come on top.
UniProt P41252: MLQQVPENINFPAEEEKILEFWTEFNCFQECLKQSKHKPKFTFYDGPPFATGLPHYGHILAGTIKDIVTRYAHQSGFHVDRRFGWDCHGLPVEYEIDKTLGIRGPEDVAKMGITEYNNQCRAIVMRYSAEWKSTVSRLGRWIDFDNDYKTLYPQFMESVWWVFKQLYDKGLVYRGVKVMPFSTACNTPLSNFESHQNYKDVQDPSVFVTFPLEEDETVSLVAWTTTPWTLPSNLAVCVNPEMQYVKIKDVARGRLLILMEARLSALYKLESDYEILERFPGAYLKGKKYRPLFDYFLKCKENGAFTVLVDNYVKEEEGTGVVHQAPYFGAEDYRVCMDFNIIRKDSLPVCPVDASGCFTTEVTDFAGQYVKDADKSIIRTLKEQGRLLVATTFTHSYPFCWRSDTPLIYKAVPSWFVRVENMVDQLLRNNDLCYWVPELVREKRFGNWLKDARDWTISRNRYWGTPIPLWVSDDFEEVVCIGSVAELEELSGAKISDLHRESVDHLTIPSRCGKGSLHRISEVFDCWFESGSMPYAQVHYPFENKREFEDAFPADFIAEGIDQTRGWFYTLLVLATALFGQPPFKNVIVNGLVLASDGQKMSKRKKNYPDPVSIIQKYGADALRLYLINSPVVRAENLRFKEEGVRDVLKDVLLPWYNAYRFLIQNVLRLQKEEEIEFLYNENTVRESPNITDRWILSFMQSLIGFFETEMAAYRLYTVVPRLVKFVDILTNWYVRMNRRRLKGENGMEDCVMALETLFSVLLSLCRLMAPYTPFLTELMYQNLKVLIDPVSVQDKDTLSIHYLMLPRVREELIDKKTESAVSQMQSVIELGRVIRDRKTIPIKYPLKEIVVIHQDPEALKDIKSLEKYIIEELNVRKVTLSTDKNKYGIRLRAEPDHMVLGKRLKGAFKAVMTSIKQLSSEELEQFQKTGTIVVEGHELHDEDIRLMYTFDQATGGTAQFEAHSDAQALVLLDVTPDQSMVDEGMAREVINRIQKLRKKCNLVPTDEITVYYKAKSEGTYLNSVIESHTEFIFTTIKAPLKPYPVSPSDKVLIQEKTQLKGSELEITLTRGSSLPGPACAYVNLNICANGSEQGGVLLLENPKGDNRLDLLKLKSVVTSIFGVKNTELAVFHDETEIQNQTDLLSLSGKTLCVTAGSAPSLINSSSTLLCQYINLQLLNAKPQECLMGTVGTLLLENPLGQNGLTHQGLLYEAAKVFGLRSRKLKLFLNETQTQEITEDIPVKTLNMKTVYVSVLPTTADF
UniProt Q9Y547: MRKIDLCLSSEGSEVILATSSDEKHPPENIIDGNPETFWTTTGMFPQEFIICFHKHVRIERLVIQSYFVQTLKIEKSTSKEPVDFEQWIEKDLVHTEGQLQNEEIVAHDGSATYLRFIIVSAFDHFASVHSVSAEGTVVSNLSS
UniProt P19367: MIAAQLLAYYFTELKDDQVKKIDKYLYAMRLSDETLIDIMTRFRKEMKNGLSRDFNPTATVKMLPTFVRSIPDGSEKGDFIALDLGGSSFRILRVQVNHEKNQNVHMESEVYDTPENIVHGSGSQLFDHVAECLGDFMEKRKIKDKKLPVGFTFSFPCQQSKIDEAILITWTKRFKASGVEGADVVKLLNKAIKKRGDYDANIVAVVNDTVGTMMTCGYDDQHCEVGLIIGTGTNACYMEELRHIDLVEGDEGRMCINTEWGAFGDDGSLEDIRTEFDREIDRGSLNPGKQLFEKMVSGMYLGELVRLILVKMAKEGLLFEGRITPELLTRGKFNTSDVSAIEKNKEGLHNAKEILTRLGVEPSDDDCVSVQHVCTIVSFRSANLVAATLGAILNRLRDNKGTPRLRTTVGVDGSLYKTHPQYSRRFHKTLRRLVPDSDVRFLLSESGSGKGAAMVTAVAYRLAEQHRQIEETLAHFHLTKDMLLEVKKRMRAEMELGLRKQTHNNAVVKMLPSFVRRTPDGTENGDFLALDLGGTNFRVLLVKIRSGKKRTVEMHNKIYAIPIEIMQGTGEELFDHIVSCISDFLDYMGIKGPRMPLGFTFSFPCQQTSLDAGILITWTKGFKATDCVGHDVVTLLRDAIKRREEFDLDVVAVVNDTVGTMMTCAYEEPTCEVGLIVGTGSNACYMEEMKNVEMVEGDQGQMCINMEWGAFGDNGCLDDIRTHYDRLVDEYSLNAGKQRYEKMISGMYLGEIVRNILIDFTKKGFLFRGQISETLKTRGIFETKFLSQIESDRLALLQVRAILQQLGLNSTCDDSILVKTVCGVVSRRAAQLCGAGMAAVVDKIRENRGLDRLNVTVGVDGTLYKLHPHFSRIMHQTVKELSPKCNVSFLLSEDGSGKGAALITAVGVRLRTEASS
UniProt P50747: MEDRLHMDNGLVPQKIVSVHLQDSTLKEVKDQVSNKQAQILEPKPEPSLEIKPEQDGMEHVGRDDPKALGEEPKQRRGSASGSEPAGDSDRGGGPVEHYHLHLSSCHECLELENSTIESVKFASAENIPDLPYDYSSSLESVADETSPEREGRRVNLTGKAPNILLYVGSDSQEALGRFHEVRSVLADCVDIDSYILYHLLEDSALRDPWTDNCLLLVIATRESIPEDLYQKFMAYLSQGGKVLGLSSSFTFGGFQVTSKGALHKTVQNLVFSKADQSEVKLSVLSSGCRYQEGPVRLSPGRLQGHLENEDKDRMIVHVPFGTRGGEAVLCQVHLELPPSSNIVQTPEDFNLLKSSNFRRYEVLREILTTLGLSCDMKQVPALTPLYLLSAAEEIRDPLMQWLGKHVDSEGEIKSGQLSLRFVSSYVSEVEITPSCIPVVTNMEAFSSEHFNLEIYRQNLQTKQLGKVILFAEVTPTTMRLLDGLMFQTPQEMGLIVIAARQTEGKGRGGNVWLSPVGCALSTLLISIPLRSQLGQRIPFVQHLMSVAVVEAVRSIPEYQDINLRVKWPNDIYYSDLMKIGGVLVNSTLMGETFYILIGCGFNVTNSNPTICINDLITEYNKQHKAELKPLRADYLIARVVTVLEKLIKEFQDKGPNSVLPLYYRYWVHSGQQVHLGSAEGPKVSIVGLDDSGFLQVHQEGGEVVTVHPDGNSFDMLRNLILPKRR
UniProt P61604, whole entry, looked up: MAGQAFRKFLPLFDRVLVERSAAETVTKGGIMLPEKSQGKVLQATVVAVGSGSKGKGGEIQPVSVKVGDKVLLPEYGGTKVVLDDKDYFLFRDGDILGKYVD
UniProt Q9BUP3: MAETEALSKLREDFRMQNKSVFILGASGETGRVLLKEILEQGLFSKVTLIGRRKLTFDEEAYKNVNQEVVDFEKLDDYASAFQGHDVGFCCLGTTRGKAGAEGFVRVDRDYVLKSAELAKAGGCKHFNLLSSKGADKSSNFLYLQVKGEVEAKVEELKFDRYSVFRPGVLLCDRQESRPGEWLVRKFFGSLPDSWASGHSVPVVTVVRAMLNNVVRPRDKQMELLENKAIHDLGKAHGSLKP
UniProt Q9P2D0: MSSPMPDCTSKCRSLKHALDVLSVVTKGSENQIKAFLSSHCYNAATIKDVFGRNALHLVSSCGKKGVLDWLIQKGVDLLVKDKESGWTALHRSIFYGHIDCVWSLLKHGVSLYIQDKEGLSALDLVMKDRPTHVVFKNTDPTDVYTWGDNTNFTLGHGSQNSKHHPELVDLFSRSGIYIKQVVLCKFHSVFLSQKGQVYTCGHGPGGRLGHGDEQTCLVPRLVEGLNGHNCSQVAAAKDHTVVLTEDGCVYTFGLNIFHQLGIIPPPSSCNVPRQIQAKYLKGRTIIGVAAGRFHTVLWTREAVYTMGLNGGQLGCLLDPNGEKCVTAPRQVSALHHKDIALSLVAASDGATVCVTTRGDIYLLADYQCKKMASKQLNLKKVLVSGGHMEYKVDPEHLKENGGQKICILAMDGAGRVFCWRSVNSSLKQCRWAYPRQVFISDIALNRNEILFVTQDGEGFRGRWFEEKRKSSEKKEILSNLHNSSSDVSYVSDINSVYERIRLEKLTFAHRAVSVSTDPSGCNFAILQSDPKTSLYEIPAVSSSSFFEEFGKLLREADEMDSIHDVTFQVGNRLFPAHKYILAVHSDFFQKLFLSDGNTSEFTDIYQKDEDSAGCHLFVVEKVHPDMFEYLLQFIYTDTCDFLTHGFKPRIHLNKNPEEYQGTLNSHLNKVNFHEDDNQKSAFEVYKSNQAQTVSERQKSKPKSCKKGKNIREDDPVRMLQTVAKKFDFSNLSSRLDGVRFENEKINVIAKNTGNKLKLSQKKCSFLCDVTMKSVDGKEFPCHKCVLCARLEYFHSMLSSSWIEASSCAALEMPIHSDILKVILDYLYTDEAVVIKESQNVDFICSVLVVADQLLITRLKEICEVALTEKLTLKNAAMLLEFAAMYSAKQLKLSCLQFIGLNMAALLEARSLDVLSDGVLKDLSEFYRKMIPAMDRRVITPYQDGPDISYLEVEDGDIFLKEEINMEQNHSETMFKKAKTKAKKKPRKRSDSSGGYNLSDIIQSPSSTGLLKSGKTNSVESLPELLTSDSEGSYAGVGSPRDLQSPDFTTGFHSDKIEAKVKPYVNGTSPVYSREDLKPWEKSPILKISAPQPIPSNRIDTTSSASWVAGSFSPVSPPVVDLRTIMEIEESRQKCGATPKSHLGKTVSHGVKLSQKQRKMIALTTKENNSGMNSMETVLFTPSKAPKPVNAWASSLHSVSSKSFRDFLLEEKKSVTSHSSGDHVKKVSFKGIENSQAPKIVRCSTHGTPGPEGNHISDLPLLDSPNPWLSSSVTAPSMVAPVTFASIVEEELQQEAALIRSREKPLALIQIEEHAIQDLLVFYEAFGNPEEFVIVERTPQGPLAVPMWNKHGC
UniProt P49773: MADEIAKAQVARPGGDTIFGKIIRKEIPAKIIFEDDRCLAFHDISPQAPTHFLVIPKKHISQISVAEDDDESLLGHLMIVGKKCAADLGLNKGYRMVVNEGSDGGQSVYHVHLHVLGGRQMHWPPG
UniProt P13598: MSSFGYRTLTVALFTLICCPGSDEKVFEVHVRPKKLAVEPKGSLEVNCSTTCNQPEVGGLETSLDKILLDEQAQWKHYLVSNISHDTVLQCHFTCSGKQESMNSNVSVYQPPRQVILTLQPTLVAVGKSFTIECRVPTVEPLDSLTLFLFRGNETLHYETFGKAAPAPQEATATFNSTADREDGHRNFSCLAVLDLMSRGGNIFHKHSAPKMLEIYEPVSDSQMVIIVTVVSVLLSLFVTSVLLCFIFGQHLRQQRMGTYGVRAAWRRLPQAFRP
UniProt Q53GQ0: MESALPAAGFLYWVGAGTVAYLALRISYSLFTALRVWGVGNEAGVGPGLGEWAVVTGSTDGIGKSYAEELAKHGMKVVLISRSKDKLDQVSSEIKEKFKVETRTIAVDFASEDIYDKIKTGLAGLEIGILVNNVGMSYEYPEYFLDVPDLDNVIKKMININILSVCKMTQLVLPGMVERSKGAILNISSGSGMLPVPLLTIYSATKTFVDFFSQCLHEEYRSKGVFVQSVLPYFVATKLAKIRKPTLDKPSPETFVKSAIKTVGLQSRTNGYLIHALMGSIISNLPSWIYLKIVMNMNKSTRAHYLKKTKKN
UniProt O95757: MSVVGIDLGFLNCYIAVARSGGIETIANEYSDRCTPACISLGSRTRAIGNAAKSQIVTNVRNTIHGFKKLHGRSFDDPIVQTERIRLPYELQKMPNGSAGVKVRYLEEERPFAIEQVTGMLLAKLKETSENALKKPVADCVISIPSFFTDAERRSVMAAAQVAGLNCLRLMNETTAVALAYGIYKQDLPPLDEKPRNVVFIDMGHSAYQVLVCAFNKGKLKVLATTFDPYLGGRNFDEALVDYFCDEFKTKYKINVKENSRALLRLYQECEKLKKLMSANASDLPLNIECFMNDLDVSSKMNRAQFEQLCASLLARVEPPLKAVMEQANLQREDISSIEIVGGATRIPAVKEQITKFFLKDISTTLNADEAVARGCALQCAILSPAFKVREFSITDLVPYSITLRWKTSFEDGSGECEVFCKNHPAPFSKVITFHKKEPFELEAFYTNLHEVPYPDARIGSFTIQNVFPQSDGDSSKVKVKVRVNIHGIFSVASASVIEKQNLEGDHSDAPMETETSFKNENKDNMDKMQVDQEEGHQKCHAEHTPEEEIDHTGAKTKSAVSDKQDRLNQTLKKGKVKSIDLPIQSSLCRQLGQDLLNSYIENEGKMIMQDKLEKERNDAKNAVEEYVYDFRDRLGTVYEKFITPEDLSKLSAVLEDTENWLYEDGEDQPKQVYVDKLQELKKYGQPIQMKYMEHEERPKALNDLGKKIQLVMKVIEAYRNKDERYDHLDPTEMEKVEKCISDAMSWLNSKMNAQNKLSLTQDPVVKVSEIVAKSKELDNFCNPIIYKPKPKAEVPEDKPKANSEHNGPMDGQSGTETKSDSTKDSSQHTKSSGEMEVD
UniProt Q9NQE9: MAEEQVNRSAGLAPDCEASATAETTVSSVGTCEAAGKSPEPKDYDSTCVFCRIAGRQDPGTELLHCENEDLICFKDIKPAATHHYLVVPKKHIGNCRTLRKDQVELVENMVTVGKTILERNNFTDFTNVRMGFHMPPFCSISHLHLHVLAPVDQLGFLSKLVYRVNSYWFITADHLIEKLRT

[1] = compound: Cc1cccc(CC(=O)N2CCc3c2ccc(-c2cn(C)c4ncnc(N)c24)c3F)n1
Outline: as §1

nilotinib = compound: Cc1cn(-c2cc(NC(=O)c3ccc(C)c(Nc4nccc(-c5cccnc5)n4)c3)cc(C(F)(F)F)c2)cn1 [nilotinib]
Outline: as §1

[2] = compound: Cc1nc(Nc2n[nH]c3c2CN(C(=O)N[C@H](CN(C)C)c2ccccc2)C3(C)C)c2sccc2n1
Outline: as §1

dasatinib = compound: Cc1nc(Nc2ncc(C(=O)Nc3c(C)cccc3Cl)s2)cc(N2CCN(CCO)CC2)n1 [dasatinib]
Outline: as §1

[3] = compound: Cc1ncc(-c2ccnc(Nc3ccc(S(C)(=O)=O)cc3)n2)n1C(C)C
Outline: as §1

[4] = compound: Cn1cc(-c2ccc3c(c2)CCN3C(=O)Cc2cccc(C(F)(F)F)c2)c2c(N)ncnc21
Outline: as §1

[5] = compound: Cn1cc(-c2ccc3nnc(C(F)(F)c4ccc5ncccc5c4)n3n2)cn1
Outline: as §1

tipifarnib = compound: Cn1cncc1[C@@](N)(c1ccc(Cl)cc1)c1ccc2c(c1)c(-c1cccc(Cl)c1)cc(=O)n2C [tipifarnib]
Outline: as §1

mubritinib = compound: FC(F)(F)c1ccc(/C=C/c2nc(COc3ccc(CCCCn4ccnn4)cc3)co2)cc1 [mubritinib]
Outline: as §1

Measured: log2 fold change

HSPG2 (UniProt P98160)
inactive: bafetinib -0.024 | [1] -0.022 | nilotinib 0.033 | [2] 0.005 | dasatinib 0.027 | [3] -0.048 | [4] 0.008 | [5] -0.085 | tipifarnib 0.193 | mubritinib 0.008

HNRNPF (UniProt P52597)
inactive: bafetinib -0.013 | [1] 0.056 | nilotinib -0.106 | [2] -0.178 | dasatinib -0.15 | [3] -0.066 | [4] 0.024 | [5] -0.057 | tipifarnib -0.051 | mubritinib -0.022

IARS (UniProt P41252)
inactive: bafetinib 0.15 | [1] 0 | nilotinib -0.132 | [2] -0.031 | dasatinib 0 | [3] 0.053 | [4] -0.226 | [5] -0.196 | tipifarnib 0.011 | mubritinib -0.113

HMBS (UniProt P08397)
inactive: bafetinib 0 | [1] -0.018 | nilotinib 0.028 | [2] 0.017 | dasatinib 0.049 | [3] 0.003 | [4] 0.011 | [5] 0.02 | tipifarnib -0.021 | mubritinib 0.018

HSP90AB1 (UniProt P08238)
inactive: bafetinib 0.005 | [1] 0.12 | nilotinib 0.109 | [2] 0.035 | dasatinib -0.063 | [3] 0.036 | [4] 0.03 | [5] 0.011 | tipifarnib -0.084 | mubritinib 0.051

HNRNPH1 (UniProt P31943)
inactive: bafetinib 0.004 | [1] 0.037 | nilotinib -0.141 | [2] -0.236 | dasatinib -0.083 | [3] -0.116 | [4] 0.022 | [5] 0.055 | tipifarnib -0.124 | mubritinib -0.044

HSPB11 (UniProt Q9Y547)
inactive: bafetinib 0.02 | [1] 0.004 | nilotinib -0.003 | [2] 0.066 | dasatinib -0.046 | [3] 0.035 | [4] 0.068 | [5] -0.094 | tipifarnib -0.051 | mubritinib 0.039

HK1 isoform 2 (UniProt P19367)
inactive: bafetinib -0.124 | [1] 0.008 | nilotinib -0.179 | [2] -0.008 | dasatinib -0.013 | [3] -0.001 | [4] 0.002 | [5] 0.027 | tipifarnib 0.025 | mubritinib 0.044

HGS (UniProt O14964)
inactive: bafetinib -0.063 | [1] 0.011 | nilotinib -0.01 | [2] -0.032 | dasatinib 0.034 | [3] -0.018 | [4] 0.026 | [5] -0.01 | tipifarnib -0.015 | mubritinib 0.061

HSPA4 (UniProt P34932)
inactive: bafetinib -0.047 | [1] -0.005 | nilotinib 0.005 | [2] -0.017 | dasatinib -0.055 | [3] 0.001 | [4] 0.026 | [5] 0.015 | tipifarnib -0.027 | mubritinib 0.015

HSPA1A (UniProt P0DMV8)
inactive: bafetinib -0.001 | [1] -0.086 | nilotinib 0.09 | [2] -0.022 | dasatinib 0.074 | [3] 0.004 | [4] -0.018 | [5] -0.025 | tipifarnib 0.07 | mubritinib -0.007

HLCS (UniProt P50747)
inactive: bafetinib -0.076 | [1] -0.005 | nilotinib -0.014 | [2] -0.015 | dasatinib -0.022 | [3] 0.016 | [4] -0.03 | [5] -0.038 | tipifarnib -0.112 | mubritinib 0.012

HSPE1 (UniProt P61604)
inactive: bafetinib -0.069 | [1] -0.038 | nilotinib 0.013 | [2] 0.032 | dasatinib 0.057 | [3] -0.027 | [4] 0.066 | [5] 0.113 | tipifarnib -0.022 | mubritinib 0.02

HMGN2 (UniProt P05204)
inactive: bafetinib -0.013 | [1] -0.189 | nilotinib -0.025 | [2] 0.022 | dasatinib 0.053 | [3] 0 | [4] -0.025 | [5] 0.04 | tipifarnib 0.079 | mubritinib 0.021

HTATIP2 isoform 3 (UniProt Q9BUP3)
inactive: bafetinib -0.143 | [1] -0.016 | nilotinib 0.116 | [2] -0.056 | dasatinib -0.046 | [3] -0.002 | [4] 0.031 | [5] 0.067 | tipifarnib 0.106 | mubritinib -0.063

HSP90B1 (UniProt P14625)
inactive: bafetinib -0.041 | [1] -0.02 | nilotinib -0.071 | [2] -0.006 | dasatinib 0.009 | [3] -0.018 | [4] -0.021 | [5] 0.018 | tipifarnib 0.031 | mubritinib -0.049

HSP90AA4P (UniProt Q58FG1)
inactive: bafetinib -0.148 | [1] -0.23 | nilotinib 0.074 | [2] 0.124 | dasatinib 0.108 | [3] -0.049 | [4] -0.003 | [5] 0 | tipifarnib 0.091 | mubritinib 0.029

HSPD1 (UniProt P10809)
inactive: bafetinib -0.069 | [1] -0.032 | nilotinib -0.002 | [2] -0.005 | dasatinib 0.034 | [3] -0.018 | [4] 0.018 | [5] 0.024 | tipifarnib 0.059 | mubritinib 0.016

HHEX (UniProt Q03014)
inactive: bafetinib -0.039 | [1] -0.024 | nilotinib -0.033 | [2] -0.056 | dasatinib 0.04 | [3] 0.008 | [4] 0.373 | [5] 0.044 | tipifarnib -0.012 | mubritinib 0.066

IBTK (UniProt Q9P2D0)
inactive: bafetinib 0.165 | [1] 0.081 | nilotinib -0.007 | [2] 0.014 | dasatinib 0.052 | [3] -0.136 | [4] -0.079 | [5] -0.068 | tipifarnib -0.025

HINT1 (UniProt P49773)
inactive: bafetinib -0.006 | [1] 0.007 | nilotinib 0.091 | [2] 0.004 | dasatinib 0.081 | [3] -0.036 | [4] 0.059 | [5] 0.188 | tipifarnib -0.075 | mubritinib 0.079

HSD17B4 (UniProt P51659)
inactive: bafetinib -0.017 | [1] 0.015 | nilotinib 0.007 | [2] 0.004 | dasatinib 0.045 | [3] -0.012 | [4] 0.033 | [5] 0.009 | tipifarnib 0.009 | mubritinib 0.176

HSPA6 (UniProt P17066)
inactive: bafetinib -0.001 | [1] -0.037 | nilotinib 0.03 | [2] 0.001 | dasatinib 0.078 | [3] -0.02 | [4] -0.039 | [5] 0.009 | tipifarnib 0.024 | mubritinib -0.018

ICAM2 (UniProt P13598)
inactive: bafetinib 0.076 | [1] 0.007 | nilotinib 0.113 | [2] -0.043 | dasatinib -0.071 | [3] 0.04 | [4] 0.087 | [5] -0.026 | tipifarnib -0.027 | mubritinib 0.011

HSD17B12 (UniProt Q53GQ0)
inactive: bafetinib 0.067 | [1] -0.039 | nilotinib 0.184 | [2] -0.039 | dasatinib -0.095 | [3] 0.002 | [4] 0.092 | [5] -0.02 | tipifarnib 0.089 | mubritinib -0.018

HRAS (UniProt P01112)
inactive: bafetinib -0.033 | [1] 0.063 | nilotinib 0.109 | [2] 0.024 | dasatinib 0 | [3] 0.003 | [4] 0.041 | [5] -0.007 | tipifarnib 0.006 | mubritinib 0.033

HYOU1 (UniProt Q9Y4L1)
inactive: bafetinib 0.039 | [1] 0 | nilotinib -0.028 | [2] 0.028 | dasatinib 0.005 | [3] -0.036 | [4] -0.043 | [5] -0.025 | tipifarnib 0.016 | mubritinib -0.128

HSPH1 (UniProt Q92598)
inactive: bafetinib -0.053 | [1] 0.018 | nilotinib -0.041 | [2] -0.023 | dasatinib -0.078 | [3] 0.022 | [4] -0.011 | [5] -0.024 | tipifarnib -0.039 | mubritinib 0.003

HSPA4L (UniProt O95757)
inactive: bafetinib -0.034 | [1] 0.02 | nilotinib -0.045 | [2] -0.006 | dasatinib 0.004 | [3] -0.007 | [4] 0.016 | [5] -0.017 | tipifarnib -0.005 | mubritinib 0

HINT3 (UniProt Q9NQE9)
inactive: bafetinib -0.157 | [1] 0.009 | nilotinib 0.02 | [2] -0.059 | dasatinib 0.051 | [3] -0.035 | [4] 0.025 | [5] -0.071 | tipifarnib 0.011 | mubritinib 0.097
